In PubChem BioAssay AID540276 (National Center for Advancing Translational Sciences (NCATS), 2011):
“And” between values parts separate entries of the source, which are not always exact repeats. Equal values may be shown once. The campaign covered roughly 300,000 compounds. About 5,400 (1.8%) were called active. The inconclusive results got no clear call from the source; some entries with a clear call stand among them for comparison. The call rests on the fitted dose curve; tested in HEK293 cells. Potencies of inconclusive entries are doubtful fits and often do not repeat.

Assay: qHTS for inhibitors of binding or entry into cells for Marburg Virus
Conditions: Marburg virus pseudotyped entry inhibition, cell reporter; activity change, negative = inhibition: at 37.8 µM (top of the series) unless noted
On the % scale 0 is the no-effect control and ±100 the full control effect; potency means the concentration at half of the fitted maximal effect.

Row | SMILES | Potency | activity change, negative = inhibition
1 | S=c1[nH]c(-c2ccccc2)cn1/N=C/c1ccccc1Br | inconclusive: 35.5 µM [inhibitor, single point] | –
2 | O=S(=O)(NC1CCCCC1)c1ccc(Br)cc1 | inconclusive: 1.26 µM [activator, partial curve, poor fit] | –
3 | O=c1[nH]c(SCc2c(F)cccc2Cl)nc2c1CCCC2 | – | inactive: 9.17% [at 46.1 µM]
4 | Cc1c(CN2CCC(Oc3ccc(C(=O)N4CCCCC4)cc3)CC2)cnn1C | inconclusive: 5.62 µM [inhibitor, single point] | –
5 | CCOc1ccc(CCNC(=O)c2cccc(S(=O)(=O)N3CC(C)OC(C)C3)c2)cc1OCC (configuration not stated) | inconclusive: 22.4 µM [inhibitor, single point] | –
6 | CN(C)C(=O)/N=N/C(=O)N(C)C | inactive | –
7 | CCOC(=O)CCN1C(=O)[C@H]2[C@H]3[C@H](O)[C@H](O)C/C(=N\OCc4ccccc4)[C@@H]3CC[C@H]2C1=O | – | inactive: -7.19% [at 14.2 µM]
8 | Cc1cs/c(=N\N=C2CCCCC2)n1Cc1ccco1 | – | inactive: 3.06% [at 46.1 µM]
9 | CCOc1cc(S(=O)(=O)NCCc2c(C)[nH]c3ccc(C)cc23)ccc1Br | – | inactive: -21.2% [at 46.1 µM]
10 | CC12CCC(C(=O)Nc3cccc(Cl)c3)(C(Br)C1=O)C2(C)C (configuration not stated) | inconclusive: 6.31 µM [inhibitor, full curve, poor fit] | –
11 | N#C/C(=C\c1cn(CC(=O)N2CCCC2)c2ccccc12)C(=O)NCc1ccc2c(c1)OCO2 | – | inactive: 2.08%
12 | O=C(Nc1c2c(nn1-c1ccccc1)CS(=O)(=O)C2)c1ccc2c(c1)OCO2 | – | inactive: 0.358%
13 | COc1cccc(C(=O)Nc2ccccc2)c1 | – | inactive: 9.06%
14 | COc1ccccc1OCC(=O)NC1CCCCCC1 | – | inactive: 13.2%
15 | S=C1NCN(C2CCCCC2)CN1CCc1ccccc1 | – | inactive: -29.5% [at 46.1 µM]
16 | O=C1C2CCCN2C(c2cccs2)N1c1ccc(Cl)cc1 (configuration not stated) | inconclusive: 14.6 µM [inhibitor, single point] | –
17 | CC(=O)Nc1ccc(OS(=O)(=O)c2ccc(C)cc2C)cc1 | inconclusive: 12.6 µM [inhibitor, single point] | –
18 | COc1ccc(Br)cc1CN1CCN(Cc2c[nH]c3ccccc23)CC1 | inconclusive: 35.5 µM [inhibitor, single point] | –
19 | Cc1cccc(Cn2c(Cc3ccccc3)nc3ccccc32)c1 | inconclusive: 3.55 µM [activator, partial curve, poor fit] | –
20 | CCc1nnc(NC(=O)c2sc3nc4c(cc3c2N)CCCCC4)s1 | – | inactive: -20.1%
21 | CCCOc1ccc(C2C3=C(CCCC3=O)N(CC(=O)O)C3=C2C(=O)CCC3)cc1OCC | – | inactive: -4.16% [at 46.1 µM]
22 | Cc1cc(C[n+]2ccccc2)c2nsnc2c1 | – | inactive: 9.63%
23 | CCN(CC)S(=O)(=O)c1ccc(NC(=O)COC(=O)CCc2cc(OC)c(OC)c(OC)c2)cc1 | inconclusive: 25.1 µM [activator, single point] | –
24 | O=C(Nc1ccccc1)c1ccc(CN2CCc3ccccc3C2)cc1 | inconclusive: 5.62 µM [inhibitor, single point] | –

From no. 10 to 14, copied from above:
Row | SMILES | Potency | activity change, negative = inhibition
10 | CC12CCC(C(=O)Nc3cccc(Cl)c3)(C(Br)C1=O)C2(C)C (configuration not stated) | inconclusive: 6.31 µM [inhibitor, full curve, poor fit] | –
11 | N#C/C(=C\c1cn(CC(=O)N2CCCC2)c2ccccc12)C(=O)NCc1ccc2c(c1)OCO2 | – | inactive: 2.08%
12 | O=C(Nc1c2c(nn1-c1ccccc1)CS(=O)(=O)C2)c1ccc2c(c1)OCO2 | – | inactive: 0.358%
13 | COc1cccc(C(=O)Nc2ccccc2)c1 | – | inactive: 9.06%
14 | COc1ccccc1OCC(=O)NC1CCCCCC1 | – | inactive: 13.2%

The listing continues:

Row | SMILES | Potency | activity change, negative = inhibition
25 | Cc1cccc(NC(=O)NCC2CC2)c1 | inconclusive: 0.562 µM [activator, full curve, poor fit] | –
26 | Cc1ccc(CC(=O)N/N=C/c2ccc(OC(=O)c3ccc([N+](=O)[O-])cc3)cc2)cc1 | – | inactive: 5.01%
27 | Cc1c(NC(=O)COC(=O)C2=COCCO2)cccc1[N+](=O)[O-] | – | inactive: 24.3%
28 | O=C(c1ccc(Br)cc1)N(C1=NCCCCS1)c1ccccc1 | – | inactive: -17.6%
29 | CC12CCC(C(N)=O)(C1Br)C2(C)C (configuration not stated) | inconclusive: 0.501 µM [activator, full curve, poor fit] | –
30 | O=C(CN1C(=O)NC2(CCCCC2)C1=O)Nc1cc(C(F)(F)F)ccc1N1CCCCC1 | inconclusive: 10 µM [inhibitor, partial curve, poor fit] | –
31 | O=C1CCCN1c1ccc(S(=O)(=O)Nc2ccc3c(c2)OCCO3)cc1 | inconclusive: 5.17 µM [inhibitor, full curve] | –
32 | Cc1ccc(S(=O)(=O)N(CC(=O)NCCC2=CCCCC2)Cc2ccccc2)cc1 | inconclusive: 29.1 µM [inhibitor, single point] | –
33 | OC(CN1CCN(Cc2ccccc2)CC1)c1ccc(Br)cc1 (configuration not stated) | inconclusive: 11.2 µM [inhibitor, partial curve, poor fit] | –
34 | O=C(Cc1csc(Nc2nc(=S)[nH]c3ccccc23)n1)NCCCN1CCN(c2ccccc2F)CC1 | inconclusive: 10 µM [inhibitor, partial curve, poor fit] | –
35 | Cc1ccc(C(=O)NNc2c3ccccc3nc3ccccc23)cc1 | inconclusive: 22.4 µM [inhibitor, single point] | –
36 | O=C(c1ccc2c(=O)n(Cc3ccccc3Cl)c(=S)[nH]c2c1)N1CCCC1 | – | inactive: -8.57% [at 46.1 µM]
37 | O=C(COC(=O)c1ccccc1SCC(=O)N1CCCC1)Nc1ccccc1OC(F)F | inconclusive: 35.5 µM [inhibitor, single point] | –
38 | Cc1ccc(-c2cc(C(F)F)n3ncc(C(=O)N4CCN(c5cccc(C)c5C)CC4)c3n2)cc1 | inconclusive: 12.6 µM [inhibitor, partial curve, poor fit] | –
39 | NC(=S)Nc1ccc(Oc2ccc(NC(N)=S)cc2)cc1 | inconclusive: 1.83 µM [inhibitor, partial curve, poor fit] | –
40 | Cc1ccc2c(c1)nnn2C1CCN(S(=O)(=O)c2ccc(C(=O)N3C(C)CCCC3C)cc2)CC1 (configuration not stated) | active: 7.94 µM | –
41 | COc1ccc(Cl)cc1S(=O)(=O)N1CCN(c2ccc(F)cc2)CC1 | inconclusive: 12.6 µM [inhibitor, partial curve, poor fit] | –
42 | N#CC1=C(Nc2ccccc2)SC=C(c2ccccc2)N=C1N1CCOCC1 | inconclusive: 35.5 µM [inhibitor, single point] | –
43 | O=C(c1cc(-c2cccs2)on1)N1CCN(C(c2ccccc2)c2ccccc2)CC1 | inconclusive: 16.4 µM [inhibitor, partial curve, poor fit] | –
44 | C/C=C(/C)C(=O)O[C@H]1C(C)=C2C([C@@H]1OC(=O)CCCCCCC)[C@@](C)(OC(C)=O)C[C@@H](OC(=O)CCC)[C@@]1(O)[C@H]2OC(=O)[C@@]1(C)O (some centres not stated) | active: 0.708 µM | –
45 | CC1C[N+](=C2C=C(N3CCOCC3)CC(C)(C)C2)CC(C)O1 (configuration not stated) | – | inactive: -12.9% [at 46.1 µM]
46 | COc1cc(C2CC(=O)Nc3c2c(=O)n(C)c2ncnn32)cc(OC)c1OC (configuration not stated) | – | inactive: -25.8% [at 46.1 µM]
47 | N#Cc1c(NC(=O)c2ccc([N+](=O)[O-])o2)sc2c1CCC2 | inconclusive: 25.1 µM [inhibitor, single point] | –
48 | Nc1cc(Cl)c(NC2=NCCN2)c(Cl)c1 | inconclusive: 11.6 µM [inhibitor, partial curve, poor fit] and inconclusive: 5.01 µM [inhibitor, partial curve] | –

Row | SMILES | Potency | activity change, negative = inhibition
49 | CCOC(=O)C1(S(=O)(=O)c2ccc(Cl)cc2)CCN(Cc2ccc(C)cc2)CC1 | inconclusive: 14.6 µM [inhibitor, partial curve] | –
50 | O=C(Nc1cccc2ncccc12)c1cccc(Br)c1 | – | inactive: -26.8% [at 46.1 µM]
51 | CCOC(=O)c1ccc(NC(=O)CCc2nc3cccnc3n2Cc2cccs2)cc1 | inconclusive: 17.8 µM [inhibitor, single point] | –
52 | COc1ccc(Br)cc1CN(C)CC(=O)Nc1ccccc1Cl | inconclusive: 2.82 µM [inhibitor, partial curve, poor fit] | –
53 | CC(=O)c1cc(CN2C(=O)CCC2=O)cs1 | inconclusive: 2.91 µM [inhibitor, partial curve, poor fit] | –
54 | CCCCNc1cc(C)nc(NCc2ccccc2)n1 | active: 11.2 µM | –
55 | CCN(Cc1ccccc1)c1ccc(/C=N/N=C(N)N)cc1 | active: 6.51 µM | –
56 | CCC1Oc2ccccc2N(Cc2ccccc2C)C1=O (configuration not stated) | inconclusive: 29.1 µM [activator, partial curve, poor fit] | –
57 | CCc1ccc(NC(=O)Cn2c(=O)c3cc(Cl)ccc3n3nncc23)cc1 | inconclusive: 6.31 µM [inhibitor, single point] | –
58 | Cc1cccc(NC(=S)Nc2ccc(Oc3ccccc3)cc2)n1 | inconclusive: 35.5 µM [inhibitor, single point] | –
59 | CC(=O)Nc1nonc1-c1nnc(SCc2ccccc2)n1C | – | inactive: -1.02% [at 46.1 µM]
60 | CCC1(c2ccc(F)cc2)NC(=O)N(CC(=O)Nc2ccccc2Cl)C1=O (configuration not stated) | inconclusive: 14.1 µM [inhibitor, single point] | –
61 | COc1ccc(-n2nc(C(=O)Nc3cc(C)ccn3)c3c4ccccc4n(C)c3c2=O)cc1Cl | – | inactive: -0.725% [at 46.1 µM]
62 | CC(C)Cn1c(-c2ccco2)csc1=Nc1cccnc1 | – | inactive: -13.9%
63 | Cc1cccc2sc(N(CCN(C)C)C(=O)/C=C/c3cccs3)nc12 | inconclusive: 10 µM [inhibitor, partial curve] | –
64 | CC(=O)OC[C@H]1O[C@H](c2ccc(C(C)=O)cc2)C=C[C@H]1OC(C)=O | – | inactive: 1.73% [at 14.2 µM]
65 | O=C(N/N=C/c1ccccc1OCc1ccccc1)c1cccs1 | – | inactive: -0.0162%
66 | CC1CCCC(NC(=O)COC(=O)c2c[nH]c(=O)[nH]c2=O)C1C (configuration not stated) | – | inactive: 6.13%
67 | N/C(=N\c1nc2c(c(=O)[nH]1)CCCC2)Nc1ccc(Oc2ccccc2)cc1 | – | inactive: -21.2%
68 | CC(C)NC(=O)CN(C(=O)CCC(=O)Nc1nccs1)c1ccc2c(c1)OCO2 | – | inactive: 11.9% [at 46.1 µM]
69 | CC(C)(C)c1ccc(S(=O)(=O)N2CCC(CO)(CC3CCCCO3)CC2)cc1 (configuration not stated) | inconclusive: 7.08 µM [inhibitor, partial curve] | –
70 | COc1ccc(/C=N/N2CCOCC2)cc1COc1ccc(Cl)cc1 | – | inactive: 13.3%
71 | O=C1CCCc2nc(N3CCc4ccccc43)ncc21 | inconclusive: 3.26 µM [activator, partial curve, poor fit] | –
72 | COc1cccc(CN(C)C(=S)Nc2ccc(C)c(C)c2)c1 | inconclusive: 3.16 µM [inhibitor, partial curve, poor fit] | –
